Screening data, single-dose tests

Amino acid sequences for entries named in this document (tags omitted). Residues count along the entry.
UniProt P9WPC5, whole entry: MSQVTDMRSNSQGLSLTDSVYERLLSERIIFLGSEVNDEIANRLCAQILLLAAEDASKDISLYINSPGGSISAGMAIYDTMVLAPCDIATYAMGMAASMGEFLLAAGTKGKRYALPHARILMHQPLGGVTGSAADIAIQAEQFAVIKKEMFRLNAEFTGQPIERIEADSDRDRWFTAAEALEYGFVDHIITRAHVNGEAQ
UniProt P9WPC3, whole entry partner: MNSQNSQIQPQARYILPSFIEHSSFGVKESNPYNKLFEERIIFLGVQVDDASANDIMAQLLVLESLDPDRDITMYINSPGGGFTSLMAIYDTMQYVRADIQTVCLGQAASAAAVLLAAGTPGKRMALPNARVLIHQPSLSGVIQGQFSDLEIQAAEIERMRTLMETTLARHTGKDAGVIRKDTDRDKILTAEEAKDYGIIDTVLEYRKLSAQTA
UniProt P9WNZ1, whole entry: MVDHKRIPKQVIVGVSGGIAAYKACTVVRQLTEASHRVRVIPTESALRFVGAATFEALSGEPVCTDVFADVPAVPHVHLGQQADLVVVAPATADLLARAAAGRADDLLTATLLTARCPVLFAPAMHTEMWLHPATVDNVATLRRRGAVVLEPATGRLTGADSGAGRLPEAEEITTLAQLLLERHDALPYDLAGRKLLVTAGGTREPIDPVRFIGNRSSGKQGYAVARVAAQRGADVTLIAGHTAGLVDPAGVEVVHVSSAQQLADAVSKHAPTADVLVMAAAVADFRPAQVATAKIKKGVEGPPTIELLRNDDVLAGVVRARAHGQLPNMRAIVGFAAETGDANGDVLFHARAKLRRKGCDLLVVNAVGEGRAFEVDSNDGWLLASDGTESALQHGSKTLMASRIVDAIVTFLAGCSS
UniProt Q8IDJ8, 1-583: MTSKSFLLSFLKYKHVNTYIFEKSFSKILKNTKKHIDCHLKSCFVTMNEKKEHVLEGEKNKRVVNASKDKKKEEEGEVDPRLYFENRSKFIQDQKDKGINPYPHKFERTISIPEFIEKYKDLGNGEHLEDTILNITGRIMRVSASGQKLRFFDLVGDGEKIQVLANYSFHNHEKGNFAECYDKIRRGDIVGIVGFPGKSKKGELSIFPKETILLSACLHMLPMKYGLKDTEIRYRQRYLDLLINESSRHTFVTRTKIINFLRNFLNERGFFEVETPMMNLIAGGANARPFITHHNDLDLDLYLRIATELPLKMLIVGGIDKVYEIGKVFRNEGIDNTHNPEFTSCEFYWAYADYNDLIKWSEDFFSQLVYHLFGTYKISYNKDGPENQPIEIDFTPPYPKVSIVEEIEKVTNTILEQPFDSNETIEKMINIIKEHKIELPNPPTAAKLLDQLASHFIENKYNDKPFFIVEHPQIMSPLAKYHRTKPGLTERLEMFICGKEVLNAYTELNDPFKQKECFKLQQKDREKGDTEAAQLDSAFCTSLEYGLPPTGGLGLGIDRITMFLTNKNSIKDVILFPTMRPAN
UniProt Q4DA54, 1-478: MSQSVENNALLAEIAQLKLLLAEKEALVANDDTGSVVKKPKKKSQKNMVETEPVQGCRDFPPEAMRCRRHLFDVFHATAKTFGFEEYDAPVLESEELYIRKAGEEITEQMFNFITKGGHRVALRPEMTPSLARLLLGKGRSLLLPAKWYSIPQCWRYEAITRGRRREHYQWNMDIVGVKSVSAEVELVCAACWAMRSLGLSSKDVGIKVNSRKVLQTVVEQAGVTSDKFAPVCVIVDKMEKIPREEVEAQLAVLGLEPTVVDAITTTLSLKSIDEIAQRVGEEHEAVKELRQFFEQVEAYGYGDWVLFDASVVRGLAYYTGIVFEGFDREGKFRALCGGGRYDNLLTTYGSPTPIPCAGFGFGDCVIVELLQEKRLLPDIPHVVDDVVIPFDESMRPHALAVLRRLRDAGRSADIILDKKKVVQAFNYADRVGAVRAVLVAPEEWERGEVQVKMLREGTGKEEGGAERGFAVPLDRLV
UniProt I6X8D2, whole entry: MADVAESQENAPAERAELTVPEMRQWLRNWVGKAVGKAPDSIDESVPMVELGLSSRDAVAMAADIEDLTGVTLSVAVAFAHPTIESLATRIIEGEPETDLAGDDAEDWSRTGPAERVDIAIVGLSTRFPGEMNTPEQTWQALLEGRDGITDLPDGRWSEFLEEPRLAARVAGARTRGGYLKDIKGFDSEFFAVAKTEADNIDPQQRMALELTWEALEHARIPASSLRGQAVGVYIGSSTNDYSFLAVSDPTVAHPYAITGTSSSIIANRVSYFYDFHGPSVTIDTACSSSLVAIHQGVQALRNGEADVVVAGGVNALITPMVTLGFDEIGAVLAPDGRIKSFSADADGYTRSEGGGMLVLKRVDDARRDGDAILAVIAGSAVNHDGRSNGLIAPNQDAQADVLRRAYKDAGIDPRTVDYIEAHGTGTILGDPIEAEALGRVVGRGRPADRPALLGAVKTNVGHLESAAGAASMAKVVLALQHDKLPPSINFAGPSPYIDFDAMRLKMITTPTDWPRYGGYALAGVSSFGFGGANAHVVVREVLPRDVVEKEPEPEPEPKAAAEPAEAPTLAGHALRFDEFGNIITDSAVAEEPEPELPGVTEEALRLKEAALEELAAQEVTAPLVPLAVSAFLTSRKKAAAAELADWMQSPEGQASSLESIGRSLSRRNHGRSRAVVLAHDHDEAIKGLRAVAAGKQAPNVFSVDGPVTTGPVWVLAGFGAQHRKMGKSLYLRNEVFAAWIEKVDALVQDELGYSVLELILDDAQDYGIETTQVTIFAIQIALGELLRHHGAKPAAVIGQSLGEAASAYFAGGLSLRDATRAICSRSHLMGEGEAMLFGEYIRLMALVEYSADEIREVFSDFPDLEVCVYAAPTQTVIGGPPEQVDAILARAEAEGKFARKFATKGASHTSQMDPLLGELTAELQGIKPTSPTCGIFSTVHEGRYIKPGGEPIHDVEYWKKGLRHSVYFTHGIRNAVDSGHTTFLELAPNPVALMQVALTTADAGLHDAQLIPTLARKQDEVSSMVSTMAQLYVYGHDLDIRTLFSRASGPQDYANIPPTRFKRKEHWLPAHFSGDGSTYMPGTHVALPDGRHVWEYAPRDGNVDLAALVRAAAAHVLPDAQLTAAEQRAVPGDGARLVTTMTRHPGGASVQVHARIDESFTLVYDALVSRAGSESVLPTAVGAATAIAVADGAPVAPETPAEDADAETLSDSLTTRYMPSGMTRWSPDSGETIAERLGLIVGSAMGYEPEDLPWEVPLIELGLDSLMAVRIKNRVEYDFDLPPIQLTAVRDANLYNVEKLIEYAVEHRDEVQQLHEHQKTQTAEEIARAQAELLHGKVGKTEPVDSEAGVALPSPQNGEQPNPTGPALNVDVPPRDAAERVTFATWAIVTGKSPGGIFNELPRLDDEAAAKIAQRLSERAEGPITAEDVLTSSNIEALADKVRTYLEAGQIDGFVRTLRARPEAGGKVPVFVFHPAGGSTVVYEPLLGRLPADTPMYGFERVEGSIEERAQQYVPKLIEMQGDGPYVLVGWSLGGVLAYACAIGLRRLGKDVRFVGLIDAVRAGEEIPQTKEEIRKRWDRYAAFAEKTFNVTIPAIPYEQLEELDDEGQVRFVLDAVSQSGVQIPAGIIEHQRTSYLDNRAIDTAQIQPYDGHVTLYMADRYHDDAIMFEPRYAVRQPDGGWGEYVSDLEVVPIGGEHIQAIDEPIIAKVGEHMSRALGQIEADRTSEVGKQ

ClpP1P2: 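ClpP1P2, Mycobacterium tuberculosis (UniProt P9WPC5 and UniProt P9WPC3). Protease assay of ClpP1P2, read by the AMC dye that it sets free. Concentration: 50 µM. Higher reads as stronger inhibition, judged from the few compounds that gave an IC50. Most other retested compounds had strongly negative values. Size under these conditions: about 69,000 compounds, about 10 of them at 50% or above in at least one test.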
CoaBC: 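Enzyme assay of CoaBC with a phosphate dye (Biomol Green) read at 650 nm. Target: Coenzyme A biosynthesis protein CoaBC, Mycobacterium tuberculosis (UniProt P9WNZ1). Tested at 30 µM. Direction is inferred from only a few compounds that gave an IC50; most scored high, so higher reads as stronger inhibition. Most strong results did not repeat in a second test. About 67,000 compounds were tested under these conditions; 0.06% (about 40) showed 50% or more at least once.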
PfKRS1: 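Lysine-tRNA ligase, Plasmodium falciparum 3D7 (UniProt Q8IDJ8). Enzyme assay of the cytosolic lysyl-tRNA synthetase in 384-well plates, read by luminescence. Tested at 30 µM. Higher reads as stronger inhibition, judged from the few compounds that gave an IC50. Size under these conditions: about 69,000 compounds, about 49 of them at 50% or above in at least one test.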
TcHisRS: 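Histidine-tRNA ligase, Trypanosoma cruzi CL Brener (UniProt Q4DA54). Enzyme assay of histidyl-tRNA synthetase; the read-out is not stated. Compounds at 30 µM. Direction is inferred from retests: higher values go with stronger inhibition. About 69,000 compounds were tested under these conditions; 0.045% (about 31) showed 50% or more at least once.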
Pks13 thioesterase: 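Enzyme assay of the thioesterase domain of polyketide synthase 13; the read-out is not stated. Target: Polyketide synthase Pks13, Mycobacterium tuberculosis (UniProt I6X8D2). Tested at 30 µM. The record gives no direction; the compounds picked for IC50 retests had high values, so higher reads as stronger inhibition. About 67,000 compounds were tested under these conditions; 0.46% (about 300) showed 50% or more at least once.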

Values are the deposited “Percent Effect”, in %. The record does not define 0% and 100%; most values in the screen are far below 50% and negative numbers occur (in some assays of this library far below -100). This is an unselected part of the compounds tested. A dash means the value is not listed here; it may have been measured.

| # | compound | ClpP1P2 | CoaBC | PfKRS1 | TcHisRS | Pks13 thioesterase |
|---|---|---|---|---|---|---|
| 1 | `COC(=O)c1ccc(/C=C/c2ncc(C(=O)O)s2)cc1` | 7.449 | 15.89 | 1.838 | 2.186 | -19.73 |
| 2 | `CC(C)N(Cc1nccn1C)C(=O)c1cnc(O)cn1` | -4.059 | - | 0.1491 | 6.579 | 10.99 |
| 3 | `CCCc1nc(CNc2cc(CS(C)(=O)=O)ccc2Cl)no1` | -10.63 | -2.991 | 3.783 | 5.946 | -30.4 |
| 4 | `CN(C)C(=O)COC1COC2(CCN(S(C)(=O)=O)CC2)C1` (stereo not drawn) | 7.867 | 5.398 | -2.294 | 2.762 | -19.22 |
| 5 | `Cc1ccc([C@]2(O)CC[C@H]3CN(Cc4cc(C)c(O)c(C)c4)C[C@H]32)nc1` | -6.694 | -3.056 | 2.113 | 0.5405 | -43.89 |
| 6 | `CN(Cc1cncnc1)[C@H]1CN(Cc2ccco2)[C@@H]2CCCO[C@@H]21` | -8.246 | 3.585 | -4.025 | 8.163 | 0.4038 |
| 7 | `CCN1CCC2(CC1)OCCN2C(=O)c1ccc(OC)c(Cl)c1` | -3.69 | -1.574 | -1.402 | -0.9901 | -13.52 |
| 8 | `CCc1nsc(N2CCN(CC(=O)NCc3cccnc3)CC2)n1` | 0.03463 | 4.989 | -3.489 | 1.064 | -20.96 |
| 9 | `CC(C)C(NC(=O)c1ccc(Cl)cc1Cl)C(=O)Nc1cnn(C)c1` (stereo not drawn) | 6.875 | 4.032 | 2.818 | -4.202 | -6.833 |
| 10 | `COc1cccc(S(=O)(=O)NC(=O)COC2CCCC2)c1` | 6.354 | 1.928 | 7.222 | -1.527 | 7.06 |
| 11 | `Cc1nc2ccccn2c1CC(=O)N[C@@H]1CC[C@@H](N2CCCC2)[C@@H]1O` | 3.529 | -3.406 | -0.914 | 1.493 | -2.211 |
| 12 | `Cc1nc(CN2CCO[C@H]3[C@H](OCC(=O)N(C)C)CC[C@@H]32)cs1` | 8.416 | 4.459 | 0.4828 | 0.8 | 1.943 |
| 13 | `CCc1nc(C2CCCN2C(=O)CCc2nc(C3CC3)no2)no1` (stereo not drawn) | -24.93 | 1.405 | -1.02 | 2.312 | -7.964 |
| 14 | `CC(C)Cn1cnc2ccc(NC(=O)CCCn3cccn3)cc2c1=O` | 9.91 | 3.148 | 3.399 | 8 | - |
| 15 | `COCCCNC(=O)Cc1cc(-c2ccc3c(c2)OCO3)on1` | 13.28 | -2.941 | -2.886 | 0 | 24.66 |
| 16 | `O=C(c1cccc(O)n1)N1CCC(O)(CN2CCC(F)(F)CC2)C1` (stereo not drawn) | 6.474 | 0.7126 | 6.451 | 3.077 | -4.614 |
| 17 | `COc1ccc2c(ccn2CCC(=O)Nc2n[nH]c(CC(C)C)n2)c1` | -1.995 | 1.58 | 0.7472 | 14.85 | - |
| 18 | `COCCO[C@H]1CCN(C(=O)c2ccsc2)[C@H]1Cc1ccncc1` | -5.617 | 3.09 | -0.5375 | 2.041 | -8.174 |
| 19 | `CCc1ccc(C(=O)N2CC[C@](C)(O)[C@H](C)C2)[nH]1` | -24.75 | 3.354 | 2.829 | -6.763 | -5.653 |
| 20 | `Cc1ccc(OCCC(=O)N(C)CC(=O)Nc2cc(C)on2)c(C)c1` | 11.87 | 5.372 | 2.315 | -7.514 | -52.34 |
| 21 | `Cc1ccc2cccc(S(=O)(=O)N(C)CC3CCN(C)CC3)c2n1` | 4.942 | 3.373 | 2.402 | 1.98 | -2.008 |
| 22 | `CSc1ccc(NCC(=O)Nc2c(C)nn(C)c2C)cc1F` | -12.22 | 0 | 3.379 | 7.143 | -2.166 |
| 23 | `Cc1csc(N2CCN(C(=O)C3(C#N)CCCC3)CC2)n1` | -27.26 | 3.169 | -0.8256 | 4.142 | 0.3576 |
| 24 | `CN1C[C@]2(CC[C@@H](C(=O)O)CC2)Oc2ccccc2C1=O` | -3.581 | 0 | -0.9198 | 9.091 | -12.29 |
| 25 | `CC(C)c1noc(C(C)Nc2nccc(CCC(F)(F)F)n2)n1` (stereo not drawn) | -3.407 | 1.392 | 1.306 | 1.22 | -7.643 |
| 26 | `CCc1c(C)nc2cc(C3CCN(Cc4cccnc4)C3)nn2c1O` (stereo not drawn) | 8.588 | -0.4902 | 1.582 | 6.383 | - |
| 27 | `CN1CSC[C@H]1C(=O)N1CCN(Cc2cccc(Cl)c2)CC1` | -1.521 | 8.182 | 3.547 | 1.622 | -28.69 |
| 28 | `Cn1ccnc1CN(Cc1ccccn1)Cc1ccccc1Cl` | -19.87 | -9.026 | 5.187 | 11.54 | -2.021 |
| 29 | `CCc1ccc(S(=O)(=O)Nc2cc(OC)c(OC)cc2C(=O)O)s1` | 5.566 | 4.841 | 3.878 | 0.7576 | -21.83 |
| 30 | `Cc1nc(C)c(C(=O)NCCOc2ccc(C(F)(F)F)cn2)o1` | -3.782 | -6.517 | 1.719 | 2.646 | -2.608 |
| 31 | `CNc1ncccc1CN1CCN(C)CC(C(N)=O)C1` (stereo not drawn) | -1.796 | 0.2427 | -1.507 | 1.916 | -2.152 |
| 32 | `COc1ccc(OC2CCN(C(=O)c3ccc(C(C)=O)s3)CC2)cc1` | -4.341 | -0.86 | 3.703 | 9.524 | 45.6 |
| 33 | `CCc1cccc(NS(=O)(=O)c2cc3c(c(C(=O)O)c2)OCCO3)c1` | -1.814 | -2.611 | 2.42 | 0.3759 | -10.17 |
| 34 | `Cn1cnnc1SC1CCc2ccccc2NC1=O` (stereo not drawn) | 5.145 | 1.392 | 5.453 | 3.727 | -13.79 |
| 35 | `CN(Cc1ccccc1)CC1(O)CCCN(CCC2CCCCC2)C1=O` (stereo not drawn) | 0.08519 | 9.225 | -2.842 | 17.24 | 17.4 |
| 36 | `CC(C)c1ccc(C(O)CN2CCN(Cc3nccn3C)CC2)cc1` (stereo not drawn) | -35.19 | 0.7833 | 0.1355 | 1.458 | -14.9 |
| 37 | `CC(=O)N1CCCC(c2ccnc(N(C)C)n2)C1` (stereo not drawn) | 1.632 | -0.1239 | 2.715 | 0.7491 | -9.789 |
| 38 | `c1cnc(NCCCOC2CCOCC2)nc1` | -4.339 | 0.6198 | 3.91 | 6.349 | -1.399 |
| 39 | `COc1cc(OC)c(C2CC(=O)Oc3cc(C)[nH]c(=O)c32)cc1OC` (stereo not drawn) | -2.893 | 1.018 | 0.7001 | 8.434 | -1.775 |
| 40 | `Cc1oncc1C(=O)N1C[C@H]2CCCC(N(C)Cc3cccs3)[C@H]2C1` (stereo partly drawn) | -1.092 | - | 2.204 | 5.063 | -7.281 |
| 41 | `O=C(O)c1cc(-c2cncnc2)cc(S(=O)(=O)N2CCCCCC2)c1` | 6.429 | 1.533 | 1.468 | -2.424 | -11.73 |
| 42 | `CC(=O)Nc1cc(C2CC2)nn1-c1nc(C)c(C)c(=O)[nH]1` | -1.759 | 2.299 | 2.367 | 0 | -44.05 |
| 43 | `COC(=O)c1sccc1NC(=O)C1CCCN1C(=O)c1ccco1` (stereo not drawn) | 12.47 | -6.329 | -4.257 | 4.065 | -2.947 |
| 44 | `CCSCc1cccc(NC2CCN(C)C2=O)c1` (stereo not drawn) | 2.165 | 0 | -0.06114 | 2.597 | -35.68 |
| 45 | `Cn1c2c(c(=O)n1C)CN(C(=O)c1cnccn1)CCC2` | -15.95 | 3.589 | 3.94 | 5.528 | -4.577 |
| 46 | `Cc1c(Cl)c(C(F)(F)F)nn1C(C)C(=O)NN1CCN(C)CC1` (stereo not drawn) | -6.21 | -4.046 | 6.893 | 2.632 | -0.04125 |
| 47 | `c1cc(CN2CCO[C@H]3[C@H](OCC4CCCC4)CC[C@@H]32)ccn1` | 5.188 | 6.684 | 3.318 | 1.657 | -17.65 |
| 48 | `Cn1ccc(C(=O)NCc2ccc(N3CCCC3)nc2)cc1=O` | -4.554 | 7.692 | 3.816 | 2.642 | -6.254 |
| 49 | `CCN(CC)C(=O)Cn1ccc2cc(NC(C)=O)ccc21` | -48.85 | 10.01 | 2.517 | 6.509 | -15.62 |
| 50 | `CCN1CCN(C)C2(CCN(Cc3cccc(C)n3)CC2)C1=O` | -10.17 | 7.125 | 0.1377 | 2.913 | -18.03 |
| 51 | `Cc1nnc(N2CCCC3(CN(Cc4ccncc4)CCO3)C2)o1` (stereo not drawn) | -0.57 | 9.677 | 0.4231 | 5.785 | -0.9211 |
| 52 | `CCN1CCN(S(=O)(=O)N2CCC(OC)CC2)[C@H]2CS(=O)(=O)C[C@H]21` | 1.31 | - | -0.7454 | 3.947 | -31.9 |
| 53 | `O=C(CCc1nc2cccnc2[nH]1)Nc1ccc2c(c1)OCC(=O)N2` | 2.47 | -22.4 | 5.909 | 9.845 | -14.09 |
| 54 | `N#CCCN(Cc1ccccn1)C(=O)c1cccc(CN2CCCC2)c1` | -17.34 | 4.654 | 3.609 | 6.25 | -6.8 |
| 55 | `CC(CNc1nccc(C(C)C)n1)Oc1cccnc1` (stereo not drawn) | -7.204 | 5.141 | 5.65 | 2.235 | -15.39 |

The last 7 entries again:

compound	ClpP1P2	CoaBC	PfKRS1	TcHisRS	Pks13 thioesterase
CCN(CC)C(=O)Cn1ccc2cc(NC(C)=O)ccc21	-48.85	10.01	2.517	6.509	-15.62
CCN1CCN(C)C2(CCN(Cc3cccc(C)n3)CC2)C1=O	-10.17	7.125	0.1377	2.913	-18.03
Cc1nnc(N2CCCC3(CN(Cc4ccncc4)CCO3)C2)o1 (stereo not drawn)	-0.57	9.677	0.4231	5.785	-0.9211
CCN1CCN(S(=O)(=O)N2CCC(OC)CC2)[C@H]2CS(=O)(=O)C[C@H]21	1.31	-	-0.7454	3.947	-31.9
O=C(CCc1nc2cccnc2[nH]1)Nc1ccc2c(c1)OCC(=O)N2	2.47	-22.4	5.909	9.845	-14.09
N#CCCN(Cc1ccccn1)C(=O)c1cccc(CN2CCCC2)c1	-17.34	4.654	3.609	6.25	-6.8
CC(CNc1nccc(C(C)C)n1)Oc1cccnc1 (stereo not drawn)	-7.204	5.141	5.65	2.235	-15.39

The values are deposited in ChEMBL (CHEMBL3988442, “University of Dundee, Small-Polar-MMV Screening Library” (2021)).